Data reported in EP0742015A1, “Prodrugs for beta-lactamase and uses thereof” (Bristol-Myers Squibb Company, priority 1990, dated 1992).
The name of at least one read-out is uncertain.

By UniProt entry, the sequences of proteins in these tests, tags left out. Residues count along the entry.
UniProt P04190, 31-257: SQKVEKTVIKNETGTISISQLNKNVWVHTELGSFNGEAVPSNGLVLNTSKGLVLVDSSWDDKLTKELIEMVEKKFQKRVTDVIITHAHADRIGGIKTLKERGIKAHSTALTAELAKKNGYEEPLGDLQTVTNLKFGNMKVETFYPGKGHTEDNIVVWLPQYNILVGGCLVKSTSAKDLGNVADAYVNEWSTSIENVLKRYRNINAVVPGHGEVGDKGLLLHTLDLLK

Target: lactamase-L6 conjugate (Bacillus cereus, UniProt P04190)
Assay: Release of adriamycin from ADR-ceph in human plasma at 37°C, HPLC
Format: biochemical, B. cereus
Conditions: human plasma 37°C, ADR-ceph 896 µg/ml, L6-lactamase conjugate 5.4 µg/ml

Compound: COc1cccc2c1C(=O)c1c(O)c3c(c(O)c1C2=O)C[C@@](O)(C(=O)CO)C[C@@H]3O[C@H]1C[C@H](NC(=O)OCC2=C(C(=O)O)N3C(=O)C(NC(=O)Cc4ccccc4)C3SC2)[C@H](O)[C@H](C)O1 (stereo partly shown) [ADR-ceph, 3-[[(N-adriamycinyl)carbonyloxy]methyl]-7-phenylacetamido-8-oxo-5-thia-1-azabicyclo[4.2.0]oct-2-ene-2-carboxylic acid]
- half life of release of adriamycin from ADR-ceph: 15 min
